Results reported in PMC11041601, “BTB domain mutations perturbing KCTD15 oligomerisation cause a distinctive frontonasal dysplasia syndrome” (Journal of Medical Genetics, 2024).
Results are given in words; binding and its absence hold for the method and conditions named. Tags and fused reporters may be left off the sequences shown.

Experiments:
[1] = molecular target: Human KCTD15 BTB domain variant Asp104His (residues 52-165) (human) (UniProt Q96SI1); assay: SEC-MALS; Superose 6 10/300 GL equilibrated with PBS, 0.5 mL/min; proteins prepared at 1 mg/mL in gel filtration buffer; both purified
[2] = molecular target: Human KCTD15 BTB domain variant Asp104His (residues 52-165) (human) (UniProt Q96SI1); assay: native MS; samples at 1 mg/mL exchanged into 50 mM ammonium acetate pH 6.5; ESI Q-TOF, direct infusion; both purified
[3] = molecular target: Human KCTD15 BTB domain variant Asp104His (residues 52-165) (human) (UniProt Q96SI1); assay: AUC; sedimentation velocity, 20°C, 40 000 rpm; proteins at 1 mg/mL in 50 mM HEPES pH 7.5, 300 mM NaCl, 0.5 mM TCEP; both purified

Measured: binding

B1: Human KCTD15 BTB domain variant Asp104His (residues 52-165) (domain or fragment, UniProt Q96SI1-1 52-165)
chain: TKSNAPVHIDVGGHMYTSSLATLTKYPDSRISRLFNGTEPIVLDSLKQHYFIHRDGEIFRYVLSFLRTSKLLLPDDFKDFSLLYEEARYYQLQPMVRELERWQQEQEQRRRSRA
no binding (tested: 1 mg/mL): all assays above
